# Paper PMC12617877
# By UniProt entry, the sequences of proteins in these tests, tags left out.
# UniProt P17844: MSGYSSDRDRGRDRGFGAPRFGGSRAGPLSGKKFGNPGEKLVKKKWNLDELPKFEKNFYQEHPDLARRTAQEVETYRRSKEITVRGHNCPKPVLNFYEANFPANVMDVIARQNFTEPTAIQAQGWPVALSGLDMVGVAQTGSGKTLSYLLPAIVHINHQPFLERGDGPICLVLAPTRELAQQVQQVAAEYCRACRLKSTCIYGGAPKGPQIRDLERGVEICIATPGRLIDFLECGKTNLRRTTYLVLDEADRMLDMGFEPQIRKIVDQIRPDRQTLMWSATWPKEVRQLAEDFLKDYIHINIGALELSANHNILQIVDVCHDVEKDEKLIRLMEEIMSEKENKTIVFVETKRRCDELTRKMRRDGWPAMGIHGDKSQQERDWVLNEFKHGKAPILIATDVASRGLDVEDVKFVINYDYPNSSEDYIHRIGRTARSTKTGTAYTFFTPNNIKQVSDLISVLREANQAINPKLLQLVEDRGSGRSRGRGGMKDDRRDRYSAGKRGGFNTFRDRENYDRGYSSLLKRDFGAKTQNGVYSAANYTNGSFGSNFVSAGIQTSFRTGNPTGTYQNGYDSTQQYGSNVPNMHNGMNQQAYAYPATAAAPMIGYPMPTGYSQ
# UniProt Q9NR30: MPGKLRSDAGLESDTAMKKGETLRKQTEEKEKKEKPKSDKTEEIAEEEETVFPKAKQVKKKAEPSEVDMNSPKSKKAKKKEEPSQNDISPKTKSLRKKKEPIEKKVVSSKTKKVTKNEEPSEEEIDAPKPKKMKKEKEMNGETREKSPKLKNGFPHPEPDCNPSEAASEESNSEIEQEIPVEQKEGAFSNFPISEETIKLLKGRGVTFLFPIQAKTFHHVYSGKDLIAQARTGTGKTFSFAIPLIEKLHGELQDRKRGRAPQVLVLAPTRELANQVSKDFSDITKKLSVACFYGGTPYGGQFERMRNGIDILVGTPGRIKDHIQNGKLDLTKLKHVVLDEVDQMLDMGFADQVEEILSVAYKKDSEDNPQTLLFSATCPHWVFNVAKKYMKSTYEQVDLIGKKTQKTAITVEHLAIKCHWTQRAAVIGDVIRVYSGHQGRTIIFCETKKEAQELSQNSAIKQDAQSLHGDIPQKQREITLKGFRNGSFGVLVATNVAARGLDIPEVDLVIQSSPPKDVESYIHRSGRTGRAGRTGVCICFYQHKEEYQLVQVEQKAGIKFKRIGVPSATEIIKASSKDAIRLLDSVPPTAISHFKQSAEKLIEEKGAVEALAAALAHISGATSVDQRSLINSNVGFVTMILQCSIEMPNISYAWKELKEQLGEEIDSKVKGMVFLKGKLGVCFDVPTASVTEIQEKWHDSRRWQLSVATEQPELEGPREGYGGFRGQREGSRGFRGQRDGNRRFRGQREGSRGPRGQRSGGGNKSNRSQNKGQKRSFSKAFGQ
# No constants are given. Whether binding was seen depends on the method and setting. In cells and extracts the contact can be indirect. A yes stands for co-enrichment or nearness to the bait. Other partners may have been found. Sequences can lack the tags named with a protein.
# Biological target: T1, RBM39-Flag (RNA-binding Motif Protein 39, Flag-tagged) (human (cDNA from Jurkat cell mRNA)) (UniProt Q14498)
# T1 sequence: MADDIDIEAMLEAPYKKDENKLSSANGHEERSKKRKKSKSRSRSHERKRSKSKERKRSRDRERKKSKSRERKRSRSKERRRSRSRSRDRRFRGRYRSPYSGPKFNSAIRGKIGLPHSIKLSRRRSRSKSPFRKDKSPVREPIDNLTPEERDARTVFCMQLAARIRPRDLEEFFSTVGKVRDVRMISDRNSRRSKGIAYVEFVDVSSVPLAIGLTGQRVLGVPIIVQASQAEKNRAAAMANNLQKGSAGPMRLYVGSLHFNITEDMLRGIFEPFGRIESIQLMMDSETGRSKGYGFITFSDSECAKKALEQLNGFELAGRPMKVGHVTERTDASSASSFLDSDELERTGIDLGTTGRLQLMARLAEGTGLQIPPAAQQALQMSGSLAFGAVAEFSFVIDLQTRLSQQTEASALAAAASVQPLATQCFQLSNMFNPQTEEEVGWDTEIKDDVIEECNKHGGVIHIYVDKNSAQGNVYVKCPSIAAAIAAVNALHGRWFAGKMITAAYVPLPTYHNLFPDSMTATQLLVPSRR
# Assay: affinity purification with mass spectrometry; HEK293T transfected with Flag-tagged RBM39 (with Tat plasmid; Vector-Flag as control), 48 h; anti-Flag beads, SDS-PAGE, in-gel digestion, LC-MS/MS
row,Substance,binding
1,DDX5 (endogenous) (from UniProt P17844 1-614),binds
2,DDX21 (endogenous) (from UniProt Q9NR30 1-783),binds
